# Test results: the supplement of paper PMC12819154, “High-throughput peptide-centric local stability assay extends protein–ligand identification to membrane proteins, tissues and bacteria” (Nature Structural & Molecular Biology, 2025)
# Amino acid sequences for entries named in this document (tags omitted). A change or cut given only in a name is not applied to a line headed by its entry.
# UniProt Q9HC38: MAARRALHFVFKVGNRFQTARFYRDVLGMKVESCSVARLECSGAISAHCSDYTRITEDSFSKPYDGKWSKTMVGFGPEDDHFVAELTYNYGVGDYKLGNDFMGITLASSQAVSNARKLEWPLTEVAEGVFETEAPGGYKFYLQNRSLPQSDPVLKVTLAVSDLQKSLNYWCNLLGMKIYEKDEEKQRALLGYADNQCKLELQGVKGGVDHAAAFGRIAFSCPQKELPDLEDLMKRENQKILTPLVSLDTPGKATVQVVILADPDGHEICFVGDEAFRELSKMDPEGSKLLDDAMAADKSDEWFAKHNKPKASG
# UniProt Q9H9A6: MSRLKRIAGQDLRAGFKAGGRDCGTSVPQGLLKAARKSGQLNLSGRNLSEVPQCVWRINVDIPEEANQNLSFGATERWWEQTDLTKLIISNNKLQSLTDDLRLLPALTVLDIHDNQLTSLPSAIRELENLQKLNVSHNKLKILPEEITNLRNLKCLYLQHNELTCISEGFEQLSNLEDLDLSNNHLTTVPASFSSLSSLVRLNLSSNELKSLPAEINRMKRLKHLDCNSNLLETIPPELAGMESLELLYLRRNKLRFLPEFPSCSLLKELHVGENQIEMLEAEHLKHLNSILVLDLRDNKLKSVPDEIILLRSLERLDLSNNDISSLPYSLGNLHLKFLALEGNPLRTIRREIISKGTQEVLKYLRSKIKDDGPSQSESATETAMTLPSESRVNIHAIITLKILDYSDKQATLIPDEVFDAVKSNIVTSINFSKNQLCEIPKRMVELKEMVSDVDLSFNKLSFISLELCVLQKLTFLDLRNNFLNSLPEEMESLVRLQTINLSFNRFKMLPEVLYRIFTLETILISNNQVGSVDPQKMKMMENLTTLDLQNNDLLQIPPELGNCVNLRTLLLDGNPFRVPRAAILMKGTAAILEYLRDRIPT
# UniProt Q9H6E5: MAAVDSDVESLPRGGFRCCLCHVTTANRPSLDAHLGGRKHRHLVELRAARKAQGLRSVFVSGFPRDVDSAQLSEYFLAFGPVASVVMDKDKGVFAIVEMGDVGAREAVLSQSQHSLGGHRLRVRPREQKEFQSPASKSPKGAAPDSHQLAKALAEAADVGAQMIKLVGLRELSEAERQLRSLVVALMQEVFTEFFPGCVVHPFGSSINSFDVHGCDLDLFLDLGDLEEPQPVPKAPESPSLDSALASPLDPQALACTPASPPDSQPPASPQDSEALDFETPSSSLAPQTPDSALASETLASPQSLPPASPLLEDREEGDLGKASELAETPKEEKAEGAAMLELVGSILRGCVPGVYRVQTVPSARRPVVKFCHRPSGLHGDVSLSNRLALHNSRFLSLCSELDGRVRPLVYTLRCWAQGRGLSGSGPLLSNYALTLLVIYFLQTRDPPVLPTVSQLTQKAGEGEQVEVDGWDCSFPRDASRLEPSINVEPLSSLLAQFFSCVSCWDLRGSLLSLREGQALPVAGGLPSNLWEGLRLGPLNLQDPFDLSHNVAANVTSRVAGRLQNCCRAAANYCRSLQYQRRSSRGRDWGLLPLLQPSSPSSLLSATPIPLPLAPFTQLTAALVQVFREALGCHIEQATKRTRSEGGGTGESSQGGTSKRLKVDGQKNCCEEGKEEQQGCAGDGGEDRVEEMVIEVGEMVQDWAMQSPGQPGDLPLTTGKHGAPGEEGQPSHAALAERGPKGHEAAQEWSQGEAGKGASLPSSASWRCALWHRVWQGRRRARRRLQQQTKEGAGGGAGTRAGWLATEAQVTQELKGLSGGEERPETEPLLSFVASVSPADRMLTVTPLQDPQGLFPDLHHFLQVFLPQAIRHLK
# UniProt Q9NNX1: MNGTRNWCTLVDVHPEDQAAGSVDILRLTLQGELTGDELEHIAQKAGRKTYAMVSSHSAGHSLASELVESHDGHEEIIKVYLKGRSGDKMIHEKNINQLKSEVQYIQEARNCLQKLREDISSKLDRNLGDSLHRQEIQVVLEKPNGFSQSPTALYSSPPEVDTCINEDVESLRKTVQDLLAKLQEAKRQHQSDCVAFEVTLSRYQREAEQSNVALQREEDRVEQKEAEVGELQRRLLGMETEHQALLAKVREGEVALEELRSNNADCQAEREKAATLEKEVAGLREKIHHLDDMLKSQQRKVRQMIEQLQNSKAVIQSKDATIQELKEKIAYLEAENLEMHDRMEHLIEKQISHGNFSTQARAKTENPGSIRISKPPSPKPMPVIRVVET
# UniProt Q9H6P5: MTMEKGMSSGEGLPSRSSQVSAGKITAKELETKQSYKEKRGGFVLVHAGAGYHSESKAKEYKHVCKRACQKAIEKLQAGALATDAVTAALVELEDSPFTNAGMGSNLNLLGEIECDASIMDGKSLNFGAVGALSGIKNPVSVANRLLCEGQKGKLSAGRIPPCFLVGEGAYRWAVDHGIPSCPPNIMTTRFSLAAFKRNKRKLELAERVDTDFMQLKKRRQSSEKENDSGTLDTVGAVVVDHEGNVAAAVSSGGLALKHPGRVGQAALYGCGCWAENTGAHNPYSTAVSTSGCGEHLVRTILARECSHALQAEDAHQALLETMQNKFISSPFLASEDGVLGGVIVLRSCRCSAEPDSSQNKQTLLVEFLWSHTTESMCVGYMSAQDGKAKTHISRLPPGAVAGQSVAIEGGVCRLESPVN
# UniProt Q9H7P9: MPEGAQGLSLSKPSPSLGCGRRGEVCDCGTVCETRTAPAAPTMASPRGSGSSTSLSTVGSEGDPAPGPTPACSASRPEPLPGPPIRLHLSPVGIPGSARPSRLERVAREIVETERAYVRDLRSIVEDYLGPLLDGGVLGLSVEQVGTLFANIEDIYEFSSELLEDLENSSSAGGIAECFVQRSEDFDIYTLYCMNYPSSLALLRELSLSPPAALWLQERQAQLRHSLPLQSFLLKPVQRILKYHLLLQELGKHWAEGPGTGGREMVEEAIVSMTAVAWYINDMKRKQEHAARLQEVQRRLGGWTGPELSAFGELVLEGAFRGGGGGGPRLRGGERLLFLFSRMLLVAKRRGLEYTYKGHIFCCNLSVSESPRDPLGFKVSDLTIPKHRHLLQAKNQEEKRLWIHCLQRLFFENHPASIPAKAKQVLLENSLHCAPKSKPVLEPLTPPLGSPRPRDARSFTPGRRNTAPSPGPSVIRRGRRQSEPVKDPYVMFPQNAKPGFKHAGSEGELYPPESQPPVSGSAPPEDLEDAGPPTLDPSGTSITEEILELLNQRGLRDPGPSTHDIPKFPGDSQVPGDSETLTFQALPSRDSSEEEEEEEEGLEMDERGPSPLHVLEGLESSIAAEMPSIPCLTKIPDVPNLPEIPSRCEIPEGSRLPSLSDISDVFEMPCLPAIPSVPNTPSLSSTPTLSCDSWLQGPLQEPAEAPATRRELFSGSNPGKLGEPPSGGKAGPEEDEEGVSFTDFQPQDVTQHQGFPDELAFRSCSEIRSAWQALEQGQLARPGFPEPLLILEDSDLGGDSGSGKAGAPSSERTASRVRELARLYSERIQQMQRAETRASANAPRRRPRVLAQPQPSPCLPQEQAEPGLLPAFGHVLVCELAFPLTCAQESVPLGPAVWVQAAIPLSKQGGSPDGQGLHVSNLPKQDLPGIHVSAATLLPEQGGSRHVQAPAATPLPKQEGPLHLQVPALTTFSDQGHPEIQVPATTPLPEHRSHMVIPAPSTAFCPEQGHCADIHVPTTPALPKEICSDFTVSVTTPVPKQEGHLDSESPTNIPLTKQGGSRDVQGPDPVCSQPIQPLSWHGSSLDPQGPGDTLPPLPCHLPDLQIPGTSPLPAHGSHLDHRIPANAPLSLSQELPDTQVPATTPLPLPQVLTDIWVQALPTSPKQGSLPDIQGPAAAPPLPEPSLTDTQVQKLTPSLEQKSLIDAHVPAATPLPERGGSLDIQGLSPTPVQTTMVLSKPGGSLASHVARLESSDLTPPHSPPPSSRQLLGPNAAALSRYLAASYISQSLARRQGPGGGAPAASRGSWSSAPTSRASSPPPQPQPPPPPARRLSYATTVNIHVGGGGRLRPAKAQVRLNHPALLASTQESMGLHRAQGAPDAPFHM
# UniProt Q9NP81: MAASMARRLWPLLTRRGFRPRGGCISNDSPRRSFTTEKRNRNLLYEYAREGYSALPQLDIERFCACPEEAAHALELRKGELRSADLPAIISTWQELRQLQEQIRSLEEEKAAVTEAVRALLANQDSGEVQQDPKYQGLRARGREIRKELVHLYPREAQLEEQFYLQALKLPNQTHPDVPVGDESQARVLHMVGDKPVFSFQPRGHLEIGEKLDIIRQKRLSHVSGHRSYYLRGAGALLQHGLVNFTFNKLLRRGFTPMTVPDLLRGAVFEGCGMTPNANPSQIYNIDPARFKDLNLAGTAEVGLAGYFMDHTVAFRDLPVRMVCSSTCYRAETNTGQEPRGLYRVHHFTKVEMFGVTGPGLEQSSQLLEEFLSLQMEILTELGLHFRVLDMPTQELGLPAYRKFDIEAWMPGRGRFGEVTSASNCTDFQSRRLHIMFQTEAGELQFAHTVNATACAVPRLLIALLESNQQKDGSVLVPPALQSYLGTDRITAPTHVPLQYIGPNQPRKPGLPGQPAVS
# UniProt Q9H974: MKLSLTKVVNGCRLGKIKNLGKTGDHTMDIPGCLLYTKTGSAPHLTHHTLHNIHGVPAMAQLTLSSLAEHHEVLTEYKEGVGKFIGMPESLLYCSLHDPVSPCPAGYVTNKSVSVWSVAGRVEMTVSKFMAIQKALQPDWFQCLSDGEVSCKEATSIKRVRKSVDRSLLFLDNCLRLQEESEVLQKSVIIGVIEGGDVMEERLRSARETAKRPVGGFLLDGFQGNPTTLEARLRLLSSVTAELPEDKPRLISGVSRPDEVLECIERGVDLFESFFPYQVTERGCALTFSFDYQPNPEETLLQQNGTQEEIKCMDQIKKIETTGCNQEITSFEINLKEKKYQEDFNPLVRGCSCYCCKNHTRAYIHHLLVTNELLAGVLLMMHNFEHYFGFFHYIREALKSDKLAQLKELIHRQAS
# UniProt Q9HCN4, whole entry: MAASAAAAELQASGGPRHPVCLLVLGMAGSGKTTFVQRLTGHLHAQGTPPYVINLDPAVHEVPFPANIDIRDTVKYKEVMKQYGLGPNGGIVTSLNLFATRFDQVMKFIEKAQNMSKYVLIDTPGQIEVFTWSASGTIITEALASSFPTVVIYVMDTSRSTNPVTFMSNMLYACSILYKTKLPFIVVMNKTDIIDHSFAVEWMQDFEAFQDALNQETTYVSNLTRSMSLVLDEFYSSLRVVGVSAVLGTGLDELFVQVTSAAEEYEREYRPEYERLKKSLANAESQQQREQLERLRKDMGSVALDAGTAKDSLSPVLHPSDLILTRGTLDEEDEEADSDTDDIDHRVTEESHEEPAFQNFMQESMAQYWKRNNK
# UniProt Q9HC36: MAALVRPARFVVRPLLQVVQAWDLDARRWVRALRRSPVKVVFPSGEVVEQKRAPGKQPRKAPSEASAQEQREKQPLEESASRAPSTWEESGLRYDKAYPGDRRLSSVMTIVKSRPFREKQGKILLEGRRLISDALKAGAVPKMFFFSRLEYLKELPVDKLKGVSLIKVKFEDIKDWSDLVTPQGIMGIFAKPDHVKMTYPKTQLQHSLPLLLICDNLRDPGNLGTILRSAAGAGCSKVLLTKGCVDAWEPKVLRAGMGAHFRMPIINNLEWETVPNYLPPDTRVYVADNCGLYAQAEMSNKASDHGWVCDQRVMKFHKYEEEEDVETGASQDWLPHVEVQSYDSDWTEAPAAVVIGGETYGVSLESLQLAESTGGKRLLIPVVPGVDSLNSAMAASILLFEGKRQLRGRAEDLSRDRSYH
# UniProt Q9H7Z7: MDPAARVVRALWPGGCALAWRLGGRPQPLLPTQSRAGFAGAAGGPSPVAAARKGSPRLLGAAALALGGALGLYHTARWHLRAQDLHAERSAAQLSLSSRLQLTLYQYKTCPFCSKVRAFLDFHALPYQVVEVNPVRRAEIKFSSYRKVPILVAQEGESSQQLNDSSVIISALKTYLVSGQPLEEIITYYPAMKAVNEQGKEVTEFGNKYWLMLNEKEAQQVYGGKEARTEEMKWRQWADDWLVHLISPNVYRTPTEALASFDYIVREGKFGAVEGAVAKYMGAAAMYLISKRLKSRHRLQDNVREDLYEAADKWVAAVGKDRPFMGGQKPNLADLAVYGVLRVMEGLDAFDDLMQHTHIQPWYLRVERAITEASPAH
# UniProt Q9H6D7: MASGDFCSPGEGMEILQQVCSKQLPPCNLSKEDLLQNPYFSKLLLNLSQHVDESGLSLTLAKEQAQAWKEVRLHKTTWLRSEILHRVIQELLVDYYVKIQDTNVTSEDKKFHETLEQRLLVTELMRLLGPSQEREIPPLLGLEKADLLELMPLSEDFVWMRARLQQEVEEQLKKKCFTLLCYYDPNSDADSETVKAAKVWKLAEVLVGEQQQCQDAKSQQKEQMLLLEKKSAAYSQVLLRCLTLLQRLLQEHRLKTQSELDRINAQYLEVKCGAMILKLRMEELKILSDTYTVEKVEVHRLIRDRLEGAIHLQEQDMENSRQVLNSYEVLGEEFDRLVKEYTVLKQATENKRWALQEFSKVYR
# The list shows a part of the results. Most values lie at the level of the controls, where differences are scatter.
# Compound: CN[C@@H]1C[C@H]2O[C@@](C)([C@@H]1OC)n1c3ccccc3c3c4c(c5c6ccccc6n2c5c31)C(=O)NC4 [staurosporine]
# Experiment: log2 fold change of tryptic peptide abundance, ligand vs vehicle (limited proteolysis) (log2 ratio); higher = more trypsin-susceptible (destabilized)
# Conditions: ligand concentration: 20 uM; sample: K562 cleared lysate; digestion: 4 min, 22 C (HT-PELSA RT4min, Orbitrap Astral)
row,Target,log2 fold change
1,"GLOD4 (peptide sequence: ALLGYADNQCK, peptide start residue: 188) (UniProt Q9HC38)",0.227
2,"LRRC40 (peptide sequence: NLSEVPQCVWR, peptide start residue: 47) (UniProt Q9H9A6)",0.468
3,"CPNE5 (peptide sequence: DIVQFVPFR, peptide start residue: 485) (UniProt Q9HCH3)",-0.134
4,"TUT1 (peptide sequence: GHEAAQEWSQGEAGK, peptide start residue: 742) (UniProt Q9H6E5)",-0.139
5,"TUFT1 (peptide sequence: ISKPPSPKPMPVIR, peptide start residue: 373) (UniProt Q9NNX1)",-0.367
6,"TASP1 (peptide sequence: GMSSGEGLPSR, peptide start residue: 6) (UniProt Q9H6P5)",0.38
7,"PLEKHG2 (peptide sequence: LHLSPVGIPGSAR, peptide start residue: 87) (UniProt Q9H7P9)",-0.709
8,"SARS2 (peptide sequence: LPNQTHPDVPVGDESQAR, peptide start residue: 170) (UniProt Q9NP81)",0.437
9,"CASS4 (peptide sequence: NCEKEETVQLTPNAEFKCEK, peptide start residue: 591) (UniProt Q9NQ75)",0.758
10,"RAB18 (peptide sequence: LAIWDTAGQER, peptide start residue: 59) (UniProt Q9NP72)",0.238
11,"UniProt Q9H974 (peptide sequence: SVSVWSVAGR, peptide start residue: 112)",-0.626
12,"GPN1 (peptide sequence: TKLPFIVVMNK, peptide start residue: 180) (UniProt Q9HCN4)",0.24
13,"UniProt Q9HC36 (peptide sequence: VKFEDIK, peptide start residue: 168)",0.444
14,"PTGES2 (peptide sequence: AFLDFHALPYQVVEVNPVRR, peptide start residue: 118) (UniProt Q9H7Z7)",-0.198
15,"UniProt Q9H6D7 (peptide sequence: LKTQSELDRINAQYLEVK, peptide start residue: 254)",0.494

# As entered above:
# Value for UniProt Q9HC36 (peptide sequence: VKFEDIK, peptide start residue: 168) under log2 fold change: 0.444
# Value for RAB18 (peptide sequence: LAIWDTAGQER, peptide start residue: 59) (UniProt Q9NP72) under log2 fold change: 0.238
